PubChem BioAssay AID1259254, NCATS | 2017
Assay: 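Genome-wide screen for genes that prevent DNA re-replication in cancer cells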 (primary screen). Cells: human HCT116 colorectal cancer cells. Reagent: single siRNA against human genes. Timing: 3 days. Measurement: 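Nuclei stained with Hoechst and imaged; cell-cycle phase assigned by DNA content; G2 share scaled per plate, non-targeting siRNA 0%, GMNN siRNA 100%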. Scale: G2 robust z-score and G2 cells, % of GMNN control: higher = more G2 cells, more excess DNA replication. Call rule: 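An siRNA counts as active if its G2 robust z-score lies at least 5 MADs above the screen median; here such calls match roughly 38% of GMNN control or more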.
Here is one part, drawn at random, of about 59,000 reagents. About 1,550 of all reagents (2.6%) count as active. 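G2 share is only a proxy for re-replication; each gene was hit by three separate siRNAs, and active genes were retested.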 The numbers tell different reagents against one gene apart. Not all columns of the deposit are shown. The record does not give: the amount of reagent.

RERE #1 gave G2 robust z-score 4.27; G2 cells, % of GMNN control 33; inactive.
Depletion of RERE #2 gave: G2 robust z-score 0.503; G2 cells, % of GMNN control 6.5; inactive.
RERE #3 gave G2 robust z-score -1.11; G2 cells, % of GMNN control -4.85; inactive.
For NSA2 #1 the deposit lists G2 robust z-score 4.33; G2 cells, % of GMNN control 33.4; inactive.
Against NSA2 #2 the deposit lists G2 robust z-score 1.31; G2 cells, % of GMNN control 12.2; inactive.
Knock-down of NSA2 #3 gave: G2 robust z-score 4.91; G2 cells, % of GMNN control 37.5; inactive.
For GEMIN2 #1, the values are G2 robust z-score -0.224; G2 cells, % of GMNN control 1.39; inactive.
Against GEMIN2 #2, the entry reads G2 robust z-score -1.18; G2 cells, % of GMNN control -5.34; inactive.
GEMIN2 #3 showed G2 robust z-score 0.401; G2 cells, % of GMNN control 5.79; inactive.
With knock-down of SOCS1 #1, the record shows G2 robust z-score 1.73; G2 cells, % of GMNN control 15.2; inactive.
Depletion of SOCS1 #2 resulted in: G2 robust z-score -1.18; G2 cells, % of GMNN control -5.33; inactive.
SOCS1 #3 gave G2 robust z-score 3.45; G2 cells, % of GMNN control 27.3; inactive.

Records above whose target name begins with N or n (3):
NSA2 #1: G2 robust z-score = 4.33; G2 cells, % of GMNN control = 33.4; outcome = inactive
NSA2 #2: G2 robust z-score = 1.31; G2 cells, % of GMNN control = 12.2; outcome = inactive
NSA2 #3: G2 robust z-score = 4.91; G2 cells, % of GMNN control = 37.5; outcome = inactive

Additional records:
For SIVA1 #1, the values are G2 robust z-score -0.983; G2 cells, % of GMNN control -3.95; inactive.
SIVA1 #2 scored G2 robust z-score 1.79; G2 cells, % of GMNN control 15.5; inactive.
Depletion of SIVA1 #3 came out at: G2 robust z-score 0.599; G2 cells, % of GMNN control 7.18; inactive.
TIPE2 #1 scored G2 robust z-score 1.26; G2 cells, % of GMNN control 11.9; inactive.
With knock-down of TIPE2 #2, the screen gave G2 robust z-score -0.647; G2 cells, % of GMNN control -1.58; inactive.
TIPE2 #3 gave G2 robust z-score -0.301; G2 cells, % of GMNN control 0.847; inactive.
